Experimental data as given in PubChem BioAssay AID330 (DTP/NCI, 2004).
The list does not hold the whole screen: it is rich in T/C values a quarter to a half above the control, in often repeated tests (any T/C) and in doses without a T/C. Further doses and runs are listed elsewhere. T/C is the treated group as % of the vehicle group. Some doses have a count of surviving animals in place of a T/C: the source holds a T/C of zero for them, seemingly a mark for toxic or unscored doses. Some doses without a T/C left all or most animals alive at the check, yet need not have been tolerated: survival well below the control is almost never listed, so the zero probably covers shortened survival too. Survivors were counted at the toxicity check, usually on the fifth day, unless a day is given; later deaths do not show. Schedule codes are those of the source, taken here to give the interval after Q, in days (D) or hours (H), and the number of doses after X. For survival time, this PubChem deposit counts one and a half times the control or more as active, and values a quarter to a half above the control carry no call in these data; other NCI protocols may use other cut-offs. Some T/C values carry the count of animals alive at the toxicity check (mostly the fifth day); without a count, all were alive then. Some doses were run more than once; the results are listed from low to high.

System: P388 leukemia ip, CD2F1 mice, survival T/C
Experiment: NCI In Vivo Anticancer Drug Screen. Data for tumor model P388 Leukemia (intraperitoneal) in CD2F1 (CDF1) mice
Details: T/C endpoint: median survival time, higher T/C = longer survival
[1] = dose: 4.8 mg/kg/injection, schedule: Q01DX009 (ip), vehicle: saline with Tween-80
[2] = dose: 200.0 mg/kg/injection, schedule: Q01DX005 (ip), vehicle: saline with Tween-80
[3] = dose: 100.0 mg/kg/injection, schedule: Q01DX005 (ip), vehicle: saline
[4] = dose: 200.0 mg/kg/injection, schedule: Q01DX005 (ip), vehicle: saline
[5] = dose: 50.0 mg/kg/injection, schedule: Q01DX005 (ip), vehicle: saline
[6] = dose: 100.0 mg/kg/injection, schedule: Q01DX009 (ip), vehicle: saline with Tween-80
[7] = dose: 200.0 mg/kg/injection, schedule: Q01DX009 (ip), vehicle: saline with Tween-80
[8] = dose: 50.0 mg/kg/injection, schedule: Q04DX002 (ip), vehicle: saline with Tween-80
[9] = dose: 100.0 mg/kg/injection, schedule: Q04DX002 (ip), vehicle: saline with Tween-80
[10] = dose: 100.0 mg/kg/injection, schedule: Q01DX009 (ip), vehicle: saline
[11] = dose: 400.0 mg/kg/injection, schedule: Q04DX002 (ip), vehicle: saline with Tween-80
[12] = dose: 600.0 mg/kg/injection, schedule: Q04DX002 (ip), vehicle: saline with Tween-80

COc1cc(C2c3cc4c(cc3CC3COC(=O)C32)OCO4)cc(OC)c1O (centres undefined)
T/C (dose: 2.1 mg/kg/injection, schedule: Q01DX009 (ip), vehicle: saline with Tween-80): 132 % of control
T/C [1]: 125 % of control
survivor count [1]: 3 of 4
survivor count (dose: 7.2 mg/kg/injection, schedule: Q01DX009 (ip), vehicle: saline with Tween-80): 4 of 4
survivor count (dose: 11.0 mg/kg/injection, schedule: Q01DX009 (ip), vehicle: saline with Tween-80): 4 of 4
survivor count (dose: 67.0 mg/kg/injection, schedule: Q01DX009 (ip), vehicle: saline with Tween-80): 1 of 4

COc1cc2c(c(OC)c1OC)-c1ccc(SC)c(=O)cc1[C@@H](NC1OC(COC(C)=O)C(OC(C)=O)C(OC(C)=O)C1OC(C)=O)CC2 (some centres undefined)
T/C (dose: 6.0 mg/kg/injection, schedule: Q01DX009 (ip), vehicle: other): 134 % of control
T/C (dose: 12.0 mg/kg/injection, schedule: Q01DX009 (ip), vehicle: other): 142 % of control
T/C (dose: 48.0 mg/kg/injection, schedule: Q01DX009 (ip), vehicle: other): 129 % of control
T/C (dose: 96.0 mg/kg/injection, schedule: Q01DX009 (ip), vehicle: other): 128 % of control

O=C1Cc2ccccc2C(=O)N1CCN1CCOCC1
survivor count (dose: 400.0 mg/kg/injection, schedule: Q01DX001 (ip), vehicle: saline): 2 of 6

CCCC(=O)C#C[Si](C)(C)C
survivor count [2]: 1 of 6

O=C(O)[C@@H]1[C@H](C(=O)O)[C@H](C(=O)O)C[C@@H]1C(=O)O
survivor count (dose: 400.0 mg/kg/injection, schedule: Q01DX009 (ip), vehicle: saline): 5 of 6

CCCCCCCCCCCCCCCCOP(=O)(O)OCCCCCCCCCCCCCCCC
survivor count (dose: 400.0 mg/kg/injection, schedule: Q04DX003 (ip), vehicle: saline with Tween-80): 6 of 6

COc1c2ccoc2cc2oc(COC3OC(CO)C(O)C(O)C3O)cc(=O)c12 (centres undefined)
survivor count [3]: 0 of 6
survivor count [4]: 0 of 6

O=[N+]([O-])c1cccn2nc(COCCO)nc12
survivor count [5]: 5 of 5

CC(=O)OCC1OC(S[As](C)C)C(OC(C)=O)C(OC(C)=O)C1OC(C)=O (centres undefined)
T/C (dose: 50.0 mg/kg/injection, schedule: Q01DX009 (ip), vehicle: saline with Tween-80): 125 % of control [5 of 6 alive]
T/C [6]: 129 % of control
T/C [7]: 125 % of control

Cc1cc(NCCCN(C)C)c2cc3ccc4cccc5ccc(c2n1)c3c45
survivor count [7]: 0 of 6

CCOP(O)(=S)OCC.[Fe]
T/C (dose: 50.0 mg/kg/injection, schedule: Q01DX001 (ip), vehicle: saline with Tween-80): 136 % of control
survivor count (dose: 100.0 mg/kg/injection, schedule: Q01DX001 (ip), vehicle: saline with Tween-80): 6 of 6
survivor count (dose: 200.0 mg/kg/injection, schedule: Q01DX001 (ip), vehicle: saline with Tween-80): 6 of 6
survivor count (dose: 400.0 mg/kg/injection, schedule: Q01DX001 (ip), vehicle: saline with Tween-80): 6 of 6

CCOc1c(N=Nc2ccccc2Cl)c(C)nn1C(N)=S
survivor count (dose: 30.0 mg/kg/injection, schedule: Q01DX005 (ip), vehicle: Klucel + Tween-80): 0 of 6
survivor count (dose: 60.0 mg/kg/injection, schedule: Q01DX005 (ip), vehicle: Klucel + Tween-80): 0 of 6
survivor count (dose: 120.0 mg/kg/injection, schedule: Q01DX005 (ip), vehicle: Klucel + Tween-80): 0 of 6
survivor count (dose: 240.0 mg/kg/injection, schedule: Q01DX005 (ip), vehicle: Klucel + Tween-80): 0 of 6

CC(C)Cc1cc(C(F)(F)F)nc(NNc2nc(CC(C)C)cc(C(F)(F)F)n2)n1
survivor count (dose: 200.0 mg/kg/injection, schedule: Q01DX009 (ip), vehicle: Klucel (hydroxypropylcellulose) (HPC)): 6 of 6

CN1C2CCC1C(Br)C=C2c1ccccc1 (centres undefined)
survivor count [3]: 0 of 6
survivor count [4]: 0 of 6

c1ccc(N/N=C2/CCN3CCCc4cccc2c43)cc1
survivor count (dose: 100.0 mg/kg/injection, schedule: Q04DX003 (ip), vehicle: DMSO): 6 of 6

[Cl][Pt][Cl].c1c[nH]cn1.c1c[nH]cn1
T/C (dose: 25.0 mg/kg/injection, schedule: Q04DX002 (ip), vehicle: saline with Tween-80): 125 % of control
T/C [8]: 132 % of control
T/C [9]: 139 % of control

CC1(O)OC(COc2ccc(Cl)cc2)COC1O (centres undefined)
T/C (dose: 240.0 mg/kg/injection, schedule: Q01DX005 (ip), vehicle: saline with Tween-80): 125 % of control

NC(=O)c1ccc2c(=O)c(C(=O)O)c[nH]c2c1
survivor count (dose: 50.0 mg/kg/injection, schedule: Q01DX009 (ip), vehicle: saline): 6 of 6
survivor count [10]: 0 of 6
survivor count (dose: 200.0 mg/kg/injection, schedule: Q01DX009 (ip), vehicle: saline): 0 of 6

O=S(=O)(N=N/C=C1\C=CC=CN1O)c1cccs1
T/C [8]: 133 % of control [5 of 6 alive]
T/C [9]: 106 [5 of 6 alive], 108, 109, 121 % of control
T/C (dose: 200.0 mg/kg/injection, schedule: Q04DX002 (ip), vehicle: saline with Tween-80): 110, 114 [5 of 6 alive], 137, 140 % of control
T/C [11]: 114 [4 of 6 alive], 120 [5 of 6 alive], 150 % of control
survivor count [11]: 2 of 6
T/C [12]: 125 % of control [4 of 6 alive]
survivor count [12]: 2 of 6

O=C(NC1CC(c2ccccc2)(c2ccccc2)OC1=O)OCc1ccccc1 (centres undefined)
survivor count [6]: 6 of 6

CC(=O)NC(C=O)OCC=O (centres undefined)
T/C (dose: 100.0 mg/kg/injection, schedule: Q01DX005 (ip), vehicle: water): 127 % of control
T/C (dose: 100.0 mg/kg/injection, schedule: Q01DX009 (ip), vehicle: water): 135 % of control
survivor count (dose: 200.0 mg/kg/injection, schedule: Q01DX009 (ip), vehicle: water): 6 of 6
survivor count (dose: 400.0 mg/kg/injection, schedule: Q01DX009 (ip), vehicle: water): 0 of 6

C[C@@H]1[C@H](c2ccccc2)OCN1C
survivor count (dose: 25.0 mg/kg/injection, schedule: Q01DX005 (ip), vehicle: saline): 6 of 6
survivor count [5]: 5 of 6
T/C (dose: 60.0 mg/kg/injection, schedule: Q01DX005 (ip), vehicle: saline): 127 % of control
survivor count [3]: 4 of 6
T/C (dose: 120.0 mg/kg/injection, schedule: Q01DX005 (ip), vehicle: saline): 127 and 132 % of control
survivor count (dose: 240.0 mg/kg/injection, schedule: Q01DX005 (ip), vehicle: saline): 0 of 6

C[Si](C)(CCl)N[Si](C)(C)CCl
T/C (dose: 400.0 mg/kg/injection, schedule: Q01DX009 (ip), vehicle: suspension in saline): 126 % of control [5 of 6 alive]
survivor count (dose: 600.0 mg/kg/injection, schedule: Q01DX009 (ip), vehicle: saline with Tween-80): 0 of 6

C=CCNC(=S)NCCN(CCO)C(=S)NCC=C
survivor count [10]: 4 of 6

O=C1c2ccccc2C(=O)N1OCc1ccc(-c2ccccc2)cc1
survivor count (dose: 200.0 mg/kg/injection, schedule: Q01DX005 (ip), vehicle: Klucel (hydroxypropylcellulose) (HPC)): 5 of 6

COC(=O)Nc1nc2ccc(C(O)(c3ccccc3)c3cccs3)cc2[nH]1 (centres undefined)
T/C [2]: 126 % of control

COc1ccc2cc1Oc1cc3c(cc1OC)CC[N+](C)(C)C3Cc1ccc(cc1)Oc1c(OC)c(OC)cc3c1C(C2)[N+](C)(C)CC3 (centres undefined)
survivor count (dose: 0.62 mg/kg/injection, schedule: Q01DX009 (ip), vehicle: saline): 2 of 6
survivor count (dose: 1.25 mg/kg/injection, schedule: Q01DX009 (ip), vehicle: saline): 0 of 6
survivor count (dose: 2.5 mg/kg/injection, schedule: Q01DX009 (ip), vehicle: saline): 0 of 6
survivor count (dose: 5.0 mg/kg/injection, schedule: Q01DX009 (ip), vehicle: saline): 0 of 6
survivor count (dose: 10.0 mg/kg/injection, schedule: Q01DX009 (ip), vehicle: saline): 0 of 6
survivor count (dose: 20.0 mg/kg/injection, schedule: Q01DX009 (ip), vehicle: saline): 0 of 6
